# Experimental data: patent US20250127806A1, “INJECTABLE LIQUID PHARMACEUTICAL COMPOSITION CONTAINING GEMCITABINE AND A CYTIDINE DEAMINASE INHIBITOR” (ST. JOHN'S UNIVERSITY, priority 2021, published 2025)
# At least one compound was matched to its structure with a doubt left.
# Tests used:
# [1] = cited from earlier work
# [2] = test system: MIAPACA-2 xenograft tumors; format: in vivo; settings: s.c. depot every 3rd day, four doses; Gem 10 mg/kg, Zeb 76 mg/kg; FIG. 3(a)
# Description: All experiments were done in accordance with the guidelines of the Institutional Animal Care and Use Committee (IACUC) at St John's university. MiaPaca-2 pancreatic cancer cells were maintained in DMEM medium supplemented with 100 U/mL penicillin, 1% streptomycin, 10% fetal bovine serum (FBS), in a humidified 5% CO2 atmosphere at 37° C. After acclimation for 7 days, mice were subcutaneously (s.c.) injected in the right flank with Matrigel (BD Biosciences, San Jose, CA, USA) containing 1.5×10^6 MiaPaca-2 cells. The mice were monitored closely for tumor growth by palpation and visual examination. Palpable and measurable tumors were found beginning 5-7 days after cells were injected. Tumor volume was calculated using the equation: tumor volume=(length×width×height)/2. Once the tumors reached a size of 80-120 mm^3 mice were randomly divided into 4 groups to receive s.c. injection (N=6 in each group) of respective in situ depot formulation.
# Total four doses of each formulation were given. A syringe with 27G needle was used to administer 10 ul of depot formulation. Post administration, the syringe was left in the same position for 30 sec in order to obviate the sudden leakage of formulation and to facilitate the gelling of entire volumes of formulations at 37° C. Measurements of tumor size and body weight was taken every alternate day using digital calipers. […]
structure (smiles),measurement,setting,value
"O=c1ncccn1[C@@H]1O[C@H](CO)[C@@H](O)[C@H]1O [Zeb, Zebularine]",Dose of reported anticancer activity,[1],more than 1000 mg/kg
same,Antitumor efficacy (tumor volume),[2],not effective in decreasing the tumor volume
